PubChem BioAssay AID652243 | Drosophila RNAi Screening Center | 2013
In all, the deposit lists about 24,000 reagents; below is a random part of those with a known target gene and a result. Of all reagents, 246 (1%) are marked active. 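Plates not normalised; calls are printed but the firefly/Renilla ratio behind them is not deposited; fold cut for lowering reported inconsistently.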 The raw values are shown without normalisation. A plus sign joins genes that one reagent is predicted to hit. The record does not give: the amount of reagent.

- Test: 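Knock-downs that decrease or increase androgen receptor reporter signal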 (primary screen)
- Cells: Drosophila S2R+ cells
- Reagent: long dsRNA against Drosophila genes
- Time to read-out: 72 h (48 h, then 24 h hormone)
- Treatment: synthetic androgen R1881 at 10 nM for 24 h
- Measured: 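Per-well raw luminescence of the androgen-driven firefly reporter and of the Renilla control, two replicates each, without normalisation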
- Scale: firefly reporter light: higher = more light from androgen-responsive reporter; Renilla control light: higher = more constitutive control signal (cell number, transfection)
- Active means: 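Hit when the log firefly-to-Renilla ratio dropped or increased by a fixed fold versus the mean of GFP or LacZ controls across duplicate plates; lowering cut given as 1.5 and as 3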
- Meaning of the calls: active = hit: reporter lowered or raised; inactive = no hit

gene | dsRNA | firefly reporter light, replicate 1 | firefly reporter light, replicate 2 | Renilla control light, replicate 1 | Renilla control light, replicate 2 | Call
nSMase | DRSC08237 | 5.81e5 | 7.64e5 | 1.64e6 | 1.58e6 | inactive
CG18493 | DRSC15334 | 2.58e5 | 3.39e5 | 2.96e6 | 3.82e6 | inactive
CG30379 | DRSC05070 | 1.35e5 | 1.57e5 | 4.47e5 | 4.81e5 | inactive
CG8329 | DRSC10978 | 7.49e5 | 6.62e5 | 1.86e6 | 2.00e6 | inactive
CG8329 | DRSC26746 | 4.85e5 | 3.03e5 | 4.64e5 | 2.03e5 | inactive
CG8818 | DRSC07275 | 9.61e5 | 1.07e6 | 1.19e6 | 1.08e6 | inactive
CG8818 | DRSC28138 | 3.88e5 | 4.50e5 | 1.40e6 | 1.15e6 | inactive
prage | DRSC17957 | 86588 | 85514 | 2.51e6 | 2.41e6 | inactive
prage | DRSC18490 | 1.69e5 | 1.73e5 | 2.52e6 | 2.33e6 | inactive
prage | DRSC18497 | 3.75e5 | 5.08e5 | 4.18e6 | 3.93e6 | inactive
CG13742 + CNT1 | DRSC06413 | 4.72e5 | 2.82e5 | 2.00e6 | 1.75e6 | inactive
CG13742 + CNT1 | DRSC28676 | 5.11e5 | 4.79e5 | 2.29e6 | 1.35e6 | inactive
Vps16B | DRSC15304 | 1.68e5 | 1.63e5 | 2.04e6 | 2.90e6 | inactive
Phf5a | DRSC03261 | 2.03e5 | 2.68e5 | 2.02e6 | 2.17e6 | inactive
CG10333 | DRSC02036 | 6.66e5 | 7.61e5 | 1.65e6 | 2.02e6 | inactive
CG10333 | DRSC29270 | 1.07e6 | 7.82e5 | 2.12e6 | 1.73e6 | inactive
CG1801 | DRSC20556 | 1.08e5 | 37714 | 4.90e5 | 2.55e5 | inactive
Rab19 | DRSC11260 | 2.49e5 | 3.60e5 | 2.53e6 | 2.49e6 | inactive
Rab19 | DRSC29485 | 4.34e5 | 5.25e5 | 1.14e6 | 1.14e6 | inactive
CG2224 | DRSC15429 | 1.77e5 | 1.67e5 | 2.37e6 | 3.05e6 | inactive
CG2224 | DRSC24269 | 6.47e5 | 5.39e5 | 5.18e5 | 6.30e5 | inactive
rut | DRSC22976 | 5.48e5 | 8.71e5 | 1.75e6 | 2.35e6 | inactive
rut | DRSC39112 | 5.41e5 | 5.45e5 | 1.35e6 | 1.54e6 | inactive
Vps16A | DRSC16422 | 74510 | 1.79e5 | 1.58e6 | 2.03e6 | inactive
PIG-K | DRSC18496 | 2.30e5 | 2.20e5 | 3.20e6 | 2.16e6 | inactive
flz | DRSC07109 | 3.02e5 | 2.26e5 | 2.45e6 | 1.94e6 | active
Skel | DRSC14905 | 86215 | 77697 | 1.23e6 | 1.56e6 | inactive
Skel | DRSC14906 | 48510 | 71178 | 2.83e5 | 3.07e5 | inactive
MED1 | DRSC11808 | 32740 | 27663 | 4.30e5 | 2.73e5 | inactive
CG7304 | DRSC10804 | 2.04e5 | 2.04e5 | 2.52e6 | 1.52e6 | inactive
CG7304 | DRSC29103 | 4.88e5 | 7.88e5 | 1.11e6 | 1.37e6 | inactive
CG5280 | DRSC10498 | 3.77e5 | 2.51e5 | 4.67e6 | 3.37e6 | inactive
CG5280 | DRSC22835 | 4.24e5 | 1.04e6 | 6.28e5 | 9.96e5 | inactive
Idgf2 | DRSC03350 | 9.18e5 | 9.09e5 | 1.55e6 | 1.45e6 | inactive
Idgf2 | DRSC26630 | 6.84e5 | 5.73e5 | 7.56e5 | 8.67e5 | inactive
Idgf2 | DRSC38977 | 8.29e5 | 6.72e5 | 2.03e6 | 1.66e6 | inactive
Tsp42Eq | DRSC06180 | 3.39e5 | 3.22e5 | 2.37e6 | 1.47e6 | inactive
Zcchc7 | DRSC11099 | 23981 | 15964 | 1.52e5 | 83812 | inactive
Zcchc7 | DRSC25470 | 7.29e5 | 8.45e5 | 8.62e5 | 1.03e6 | inactive
CG10336 | DRSC02037 | 1.32e6 | 1.08e6 | 1.28e6 | 1.28e6 | inactive
CG7970 | DRSC08605 | 1.08e6 | 5.11e5 | 2.09e6 | 1.43e6 | inactive
CG7970 | DRSC26090 | 3.44e5 | 2.69e5 | 8.11e5 | 6.34e5 | inactive
CG15615 | DRSC06568 | 67921 | 78667 | 1.06e6 | 1.06e6 | inactive
CG15615 | DRSC29555 | 3.83e5 | 5.18e5 | 7.02e5 | 7.02e5 | inactive
Gpb5 | DRSC21241 | 6.39e5 | 6.29e5 | 5.27e6 | 3.69e6 | inactive
CG14982 | DRSC23022 | 8.06e5 | 8.68e5 | 4.56e5 | 7.24e5 | inactive
Sar1 | DRSC17049 | 78985 | 94147 | 1.05e6 | 1.27e6 | inactive
Sar1 | DRSC22115 | 4.34e5 | 6.51e5 | 1.33e6 | 1.80e6 | inactive
Sar1 | DRSC24141 | 3.24e5 | 3.10e5 | 1.32e6 | 6.44e5 | inactive
CG31029 | DRSC15422 | 1.84e5 | 2.22e5 | 2.02e6 | 2.81e6 | inactive
CG31029 | DRSC29559 | 3.87e5 | 5.18e5 | 8.52e5 | 8.52e5 | inactive
CG12521 | DRSC09893 | 3.10e5 | 2.53e5 | 3.00e6 | 2.49e6 | inactive
vig | DRSC03630 | 5.34e5 | 2.85e5 | 2.75e6 | 2.30e6 | inactive
vig | DRSC21672 | 1.46e6 | 1.15e6 | 2.12e6 | 1.86e6 | inactive
Hsdl2 | DRSC15839 | 75153 | 78741 | 5.37e5 | 5.93e5 | inactive
Hsdl2 | DRSC28075 | 5.52e5 | 6.82e5 | 1.30e6 | 1.50e6 | inactive
Rab9 | DRSC03281 | 2.24e5 | 2.36e5 | 2.01e6 | 2.21e6 | inactive
GatA | DRSC16956 | 1.11e5 | 85084 | 1.07e6 | 1.07e6 | inactive
ImpE2 | DRSC08665 | 8.73e5 | 9.22e5 | 1.08e6 | 1.52e6 | inactive
ImpE2 | DRSC28588 | 4.89e5 | 4.98e5 | 1.55e6 | 1.66e6 | inactive
CG13337 | DRSC06371 | 1.23e5 | 76808 | 2.00e6 | 2.00e6 | inactive
CG13337 | DRSC28309 | 4.71e5 | 7.84e5 | 1.16e6 | 1.94e6 | inactive
CG13884 | DRSC08354 | 49116 | 40525 | 8.03e5 | 5.77e5 | inactive
CG1271 | DRSC08290 | 1.59e6 | 1.01e6 | 2.32e6 | 1.96e6 | inactive
CG1271 | DRSC36888 | – | – | – | – | inactive
CG1271 | DRSC36889 | – | – | – | – | inactive
CG42760 (retired record) | DRSC39067 | 4.88e5 | 4.19e5 | 1.12e6 | 1.22e6 | inactive
asRNA:CR43259 + CG31089 | DRSC15934 | 1.46e5 | 1.65e5 | 2.58e6 | 2.40e6 | inactive
bcn92 | DRSC18741 | 3.72e5 | 3.85e5 | 4.03e6 | 2.63e6 | inactive
bcn92 | DRSC28946 | 7.31e5 | 6.27e5 | 1.12e6 | 1.19e6 | inactive
Cyp313a3 | DRSC16626 | 1.26e5 | 1.87e5 | 2.90e6 | 3.48e6 | inactive
CG14711 + Zaf1 | DRSC14934 | 1.45e5 | 1.48e5 | 1.72e6 | 1.49e6 | inactive
CG14711 + Zaf1 | DRSC23982 | 1.11e6 | 9.87e5 | 1.09e6 | 1.22e6 | inactive
CG12783 | DRSC14538 | 1.27e5 | 90261 | 1.50e6 | 2.01e6 | inactive

Only “Renilla control light, replicate 1”, for 12 of the entries above:
Gpb5 [DRSC21241]	5.27e6
CG14982 [DRSC23022]	4.56e5
Sar1 [DRSC17049]	1.05e6
Sar1 [DRSC22115]	1.33e6
Sar1 [DRSC24141]	1.32e6
CG31029 [DRSC15422]	2.02e6
CG31029 [DRSC29559]	8.52e5
CG12521 [DRSC09893]	3.00e6
vig [DRSC03630]	2.75e6
vig [DRSC21672]	2.12e6
Hsdl2 [DRSC15839]	5.37e5
Hsdl2 [DRSC28075]	1.30e6
